In PMC3762901, “Cyclic Peptide Inhibitors of the β-Sliding Clamp in Staphylococcus aureus” (PLoS ONE, 2013):

B1: DnaA of S. aureus (protein, UniProt Q2G2H5 1-453)
chain: MSEKEIWEKVLEIAQEKLSAVSYSTFLKDTELYTIKDGEAIVLSSIPFNANWLNQQYAEIIQAILFDVVGYEVKPHFITTEELANYSNNETATPKETTKPSTETTEDNHVLGREQFNAHNTFDTFVIGPGNRFPHAASLAVAEAPAKAYNPLFIYGGVGLGKTHLMHAIGHHVLDNNPDAKVIYTSSEKFTNEFIKSIRDNEGEAFRERYRNIDVLLIDDIQFIQNKVQTQEEFFYTFNELHQNNKQIVISSDRPPKEIAQLEDRLRSRFEWGLIVDITPPDYETRMAILQKKIEEEKLDIPPEALNYIANQIQSNIRELEGALTRLLAYSQLLGKPITTELTAEALKDIIQAPKSKKITIQDIQKIVGQYYNVRIEDFSAKKRTKSIAYPRQIAMYLSRELTDFSLPKIGEEFGGRDHTTVIHAHEKISKDLKEDPIFKQEVENLEKEIRNV
B2: DnaB of S. aureus (protein, UniProt Q2FXP4 1-466)
chain: MGRQAFEFGLRPKDQFKVMQHFDLNTNHLEVLNRLYTPLIGTQAVGLYHFMTQFVKESHNETLILSHYIFMNELKINLLEFRQQMDLLEAIGLLKAFVKHDEQETQFVYQLIQPPSAHLFFNDPMLSIFLYSEVEHRRFHELKKYFEYQQIDLSEFKQVTRQFTDVFKVPSTKIDIDTSDIPINEPYQGIDLSNESFDFEMLRQMLGKHFISQDIVTKDAKRLITQLATLYGLTADGMKHVILNSITSGQQLSFEEMRKQARSYYLMEHENQMPKLQVKSPATSSSAGKSSEVNPKPQSDEWFELLEQTSPIDMLASWSESEPTISQKTMVEELIEREKMSFGVINILLQFVMLKEDMKLPKAYILEIASNWKKKGIKTAKEAYNYAKKVNQPKNEGSSGNYQKRGSYYGQRNRISKEKTPKWLENRDKPSEEDSAKDNSVDDQQLEQDRQAFLDKLSKKWEEDSQ

Experiments:
Test in all cases: two-hybrid; bacterial two-hybrid (BTH): T18 and T25 fusions (pUT18 and p25N derivatives) in E. coli BTH101; colour of colonies on plates with 40 μg/ml X-gal
[1] = target: T1, DnaA of S. aureus (S. aureus) (UniProt Q2G2H5)
T1 sequence: B1 chain

[2] = target: T2, DnaB of S. aureus (S. aureus) (UniProt Q2FXP4)
T2 sequence: B2 chain

[3] = target: HolA (δ) of S. aureus (S. aureus)
[4] = target: HolB (δ`) of S. aureus (S. aureus)

Molecule	binding [1]	binding [2]	binding [3]	binding [4]
DnaX (τ) of S. aureus (from UniProt A0A0H2XIT2)	no binding	no binding		
PolC of S. aureus	no binding	no binding		
HolB (δ`) of S. aureus (from UniProt A0A0H2XHN8 1-308)			binds	binds
B1			no binding	
B2			no binding	

No constants are given. Whether binding was seen depends on the method and setting. For some assays here: Binding can be weak; no strength is given.
